Test results from paper doi:10.1101/2020.07.14.203299 (bioRxiv, 2020).
Where two headings read alike, the source gives them in different places. Results are given in words; binding and its absence hold for the method and conditions named. For some assays here: Binding seen in cells or lysates may run through a third protein. Some results given as binding are weak or reduced against the parent protein; the word gives no strength.

How the values were obtained:
Assay in all cases: pull-down
[1] = target: GST-FlgN (Salmonella enterica serovar Typhimurium) (UniProt P0A1J7)
[2] = target: GST-FliJ over-expressed in MMHI0117 cells (Salmonella enterica serovar Typhimurium) (UniProt P0A1K1)
[3] = target: GST-FliJ over-expressed in MMHI0117 cells (Salmonella enterica serovar Typhimurium) (UniProt P0A1K1); remark: listed apart in the source
[4] = target: GST-FlgN (Salmonella enterica serovar Typhimurium) (UniProt P0A1J7); remark: listed apart in the source
[5] = target: GST-FlgN/FlgK/FliJ complex (Salmonella enterica serovar Typhimurium) (UniProt P0A1J7)

FliJ (in the GST-FlgN/FlgK/FliJ complex) (from UniProt P0A1K1 1-147)
binding [1]: binds

FlgN (from UniProt P0A1J7 1-140)
binding [2]: binds

B1: FlhA (protein, UniProt P40729 1-692)
chain: MANLVAMLRLPSNLKSTQWQILAGPILILLILSMMVLPLPAFILDLLFTFNIALSIMVLLVAMFTQRTLDFAAFPTILLFTTLLRLALNVASTRIILMEGHTGAAAAGKVVEAFGHFLVGGNFAIGIVVFIILVIINFMVITKGAGRIAEVGARFVLDGMPGKQMAIDADLNAGLIGEDEAKKRRSEVTQEADFYGSMDGASKFVRGDAIAGILIMVINVVGGLLVGVLQHGMSIGSAAESYTLLTIGDGLVAQIPALVISTAAGVIVTRVSTDQDVGEQMVGQLFSNPRVMLLAAAVLGLLGMVPGMPNLVFLLFTAALLGLAWWLRGREEKAPEEPQPVKMPENNSVVEATWNDVQLEDSLGMEVGYRLIPMVDFQQDGELLGRIRSIRKKFAQDMGFLPPVVHIRDNMDLQPARYRILMKGVEIGSGDAYPGRWLAINPGTAAGTLPGEKTVDPAFGLDAIWIESALKEQAQIQGFTVVEASTVVATHLNHLIGQFSAELFGRQEAQQLLDRVSQEMPKLTEDLVPGVVTLTTLHKVLQNLLAEKVPIRDMRTILETLAEHAPLQSDPHELTAVVRVALGRAITQQWFPGNEEVQVIGLDTALERLLLQALQGGGGLEPGLADRLLAQTQEALSRQEMLGAPPVLLVNHALRPLLSRFLRRSLPQLVVLSNLELSDNRHIRMTATIGGK
binding [3]: binds

B2: FlhA_(C38K) lacking residues 328–351 of FlhAL (domain or fragment, UniProt P40729 352-692)
chain: ATWNDVQLEDSLGMEVGYRLIPMVDFQQDGELLGRIRSIRKKFAQDMGFLPPVVHIRDNMDLQPARYRILMKGVEIGSGDAYPGRWLAINPGTAAGTLPGEKTVDPAFGLDAIWIESALKEQAQIQGFTVVEASTVVATHLNHLIGQFSAELFGRQEAQQLLDRVSQEMPKLTEDLVPGVVTLTTLHKVLQNLLAEKVPIRDMRTILETLAEHAPLQSDPHELTAVVRVALGRAITQQWFPGNEEVQVIGLDTALERLLLQALQGGGGLEPGLADRLLAQTQEALSRQEMLGAPPVLLVNHALRPLLSRFLRRSLPQLVVLSNLELSDNRHIRMTATIGGK
binding [4]: binds
binding [5]: binds
